# From PubChem BioAssay AID651640 (Broad Institute, 2012)
# Out of some 350,000 compounds screened, about 6,000 (1.7%) were called active. This list was built around the results that the source calls inconclusive (neither active nor inactive); the mix of calls is not that of the screen. Rule as the data show it: active = CPE inhibition above about 20% (passing the limit was not always enough); inconclusive = no clear call, values can overlap the other calls; tested in BHK-21 cells.
# Test: protection of cells from dengue 2 killing – plate reader, single concentration, primary screen (AID 651640);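 also: 0% = median of neutral control wells and 100% = median of positive control wells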
# Details: DENV2-infected cells, cytopathic effect rescue, at 9.99 µM, hits give high values
row,Compound,CPE inhibition
1,COCC#Cc1ccc(CC[C@H]2O[C@H]3CC[C@H](CO)O[C@H]3C[C@@H]2n2cc(C3CC3)nn2)cc1,inactive: -2.76%
2,O=C(NCc1ccccc1)C1CCN(S(=O)(=O)c2cccc3cccnc23)CC1,inactive: 1.22%
3,CCCN1[C@@H]2c3ccc(-c4cccnc4)c(=O)n3C[C@@H]2[C@@H](CO)[C@@H]1C(=O)NC1CCC1,inactive: -2.88%
4,CCc1noc(C)c1C(=O)N1CCN(c2cccc(C)c2C)CC1,inactive: 1.96%
5,CS(=O)(=O)c1cccc(-c2nnc(NC(=O)c3ccc(S(=O)(=O)N4CCCC4)cc3)o2)c1,active: 60.7%
6,COc1cccc(NC(=O)N(C)C[C@H]2Oc3ncc(/C=C/c4ccccc4)cc3C(=O)N([C@H](C)CO)C[C@H]2C)c1,inconclusive: 38.7%
7,COc1ccc(-c2sc3cc(OC)c(OC)cc3c2C#CC(C)(C)O)cc1,active: 23.8%
8,NC(=O)C1CCN(CC(=O)Nc2nc(-c3ccccc3)cs2)CC1,inconclusive: 29.1%
9,COc1ccccc1CC1S/C(=N/N=C/c2ccco2)NC1=O (stereo unspecified),inconclusive: 21.3%
10,COc1cccc(N2[C@@H](CC(C)=O)c3ccc(/C=C/C(C)=O)cc3S2(=O)=O)c1,inconclusive: 32.1%
11,C[C@@H]1CN([C@H](C)CO)C(=O)Cc2cc(NS(=O)(=O)c3ccc(Cl)cc3)ccc2O[C@H]1CN(C)S(=O)(=O)c1ccc(Cl)cc1,inconclusive: 24.3%
12,O=C(N[C@@H]1CC[C@H](CCNS(=O)(=O)c2ccc(F)cc2)O[C@H]1CO)c1cnccn1,inactive: 5.91%
13,COc1ccc(-c2nn(-c3ccccc3)cc2/C=C/C(=O)O)cc1[N+](=O)[O-],inconclusive: 27.1%
14,CN(C)CC(=O)Nc1ccc2c(c1)[C@@H]1C[C@@H](CC(=O)NC3CCCCC3)O[C@H](CO)[C@@H]1O2,active: 85.7%
15,O=C(c1ccccc1)N1C[C@@H]2[C@H](c3ccccc31)[C@H](CO)N2Cc1cocn1,inactive: 2.03%
16,C[C@H](CO)N1C[C@H](C)[C@H](CN(C)Cc2ccc(C(=O)Nc3ccccc3N)cc2)Oc2ccc(NC(=O)Cc3ccccc3)cc2CC1=O,active: 32.1%
17,Cc1noc(C)c1NC(=O)N(C)C[C@H]1OCCCC[C@H](C)Oc2ccc(N(C)C)cc2C(=O)N([C@@H](C)CO)C[C@@H]1C,inconclusive: 21.2%
18,C/C(=N\NC(=O)CCC(=O)NCc1ccccc1)c1ccc([N+](=O)[O-])cc1,inconclusive: 67.9%
19,O=C(c1ccc2c(c1)OCO2)N1CC(=O)N2[C@H](C1)[C@H](c1ccc(C#Cc3ccccc3)cc1)[C@@H]2CO,active: 49.9%
20,Cc1ccc(S(=O)(=O)Nc2ccc3c(c2)CC(=O)N([C@H](C)CO)C[C@H](C)[C@@H](CN(C)C(=O)Nc2cccc4ccccc24)O3)cc1,active: 96.4%
21,N#CCCN(C(=S)NC(=O)c1cccs1)c1ccccc1F,inconclusive: 75.9%
22,O=C(CC1S/C(=N/N=C/c2c[nH]c3ccccc23)NC1=O)Nc1ccccc1 (stereo unspecified),active: 20.3%
23,COc1ccc(-c2ccccc2[C@@H]2[C@@H](C#N)N(C(=O)C3CCCCC3)[C@H]2CO)cc1,inconclusive: 30.3%
24,CCCOC(c1ccccc1)(c1ccc(C(F)(F)F)cc1)C(Oc1nc(C)cc(C)n1)C(=O)O (stereo unspecified),inconclusive: 20.8%

row,Compound,CPE inhibition
1,O=C(Nc1ccc(F)cc1)N1C[C@H]2[C@@H](c3ccccc31)[C@@H](CO)N2C(=O)Cc1cccnc1,inconclusive: 44.9%
2,CN(CC(=O)Nc1ccccc1Cl)C(=O)COC(=O)c1ccc([N+](=O)[O-])s1,inactive: 4.23%
3,COCC(=O)N1[C@H](CO)[C@H]2c3ccccc3N(C(=O)Nc3ccccc3Cl)C[C@H]21,inconclusive: 81%
4,C[C@H](CO)N1C[C@H](C)[C@H](CN(C)Cc2ccc(C(=O)O)cc2)Oc2ccc(NC(=O)Nc3ccccc3)cc2CC1=O,inconclusive: 24.4%
5,Cc1noc(C)c1NC(=O)N(C)C[C@@H]1Oc2c(NC(=O)Nc3ccc4c(c3)OCO4)cccc2C(=O)N([C@H](C)CO)C[C@@H]1C,inactive: -3.65%
6,O=C(/C=C\c1ccc2c(c1)OCO2)Nc1c2c(nn1-c1ccc(Cl)cc1)CSC2,inconclusive: 38.2%
7,COc1ccc(OC)c(NC(=O)COC(=O)C2CCC2)c1,inconclusive: 27%
8,CC(C)c1ccc(/C=C2\SC(N3CCOCC3)=NC2=O)cc1,inactive: 4.88%
9,C/C(=N\NC(=O)c1ccccc1O)c1ccc(NC(=O)c2ccccc2)cc1,active: 117%
10,Cc1noc(C)c1NC(=O)N(C)C[C@H]1Oc2ccc(NC(=O)Cc3cn(C)c4ccccc34)cc2CC(=O)N([C@@H](C)CO)C[C@H]1C,inactive: 6.76%
11,CCNC(=O)C[C@@H]1CC[C@H]2[C@H](COc3ccc(NC(=O)Nc4ccc(C)cc4)cc3C(=O)N2C)O1,inconclusive: 44.2%
12,Cc1nn(C)c(C)c1NC(=O)COc1ccc(Cl)cc1,inconclusive: 60.3%
13,COc1ccc(/C=C/C(=O)OC(C)C(=O)c2ccccc2)cc1OC (stereo unspecified),inconclusive: 24.2%
14,COc1ccc2c3c([nH]c2c1)[C@H](CO)N(C(=O)c1ccncc1)CC31CN(C(=O)NC(C)C)C1,inconclusive: 82.2%
15,C[C@H](CO)N1C[C@H](C)[C@@H](CN(C)C(=O)C2CCC2)Oc2cc(C#CC(C)(C)O)ccc2S1(=O)=O,inconclusive: 46.6%
16,C[C@H](CO)N1C[C@H](C)[C@@H](CN(C)S(=O)(=O)c2cccs2)OCCCC[C@H](C)Oc2ccc(NC(=O)CCCN(C)C)cc2C1=O,inactive: -0.698%
17,Cc1cc(C)c2sc(C)[n+](CCCS(=O)(=O)[O-])c2c1,inactive: -1.24%
18,C/C=C/c1cnc2c(c1)C(=O)N([C@@H](C)CO)C[C@H](C)[C@H](CN(C)S(=O)(=O)c1cn(C)cn1)O2,inactive: 9.93%
19,C[C@@H]1CCCCO[C@H](CN(C)S(=O)(=O)c2cn(C)cn2)[C@H](C)CN([C@@H](C)CO)C(=O)c2cc(NC(=O)c3ccccc3)ccc2O1,inconclusive: 20.2%
20,COc1ccc(NC(=O)Nc2ccc3c(c2)[C@H]2C[C@H](CC(=O)NCc4ccncc4)O[C@@H](CO)[C@H]2O3)cc1,inconclusive: 31.7%
21,CSc1ccccc1C(=O)Nc1ccc2c(c1)OCO2,inconclusive: 30.3%
22,Cc1nc(SCC(N)=O)c(C#N)c(C)c1C,inconclusive: 35.6%
23,Cc1cc(C)cc(C(O)c2ncc(-c3ccc4ccccc4c3)[nH]2)c1 (stereo unspecified),inactive: -3.59%
24,Cc1ccc(S(=O)(=O)N2CCCCC2)cc1NC(=O)c1cc(=O)[nH]c2ccccc12,active: 77.3%

row,Compound,CPE inhibition
1,O=C(CN1CCN(C(=O)C2CC2)CC1)Nc1cc(C(F)(F)F)cc(C(F)(F)F)c1,inconclusive: 27.6%
2,CCCN(C)C[C@@H]1OCCCC[C@@H](C)Oc2ccc(NC(=O)CCC(F)(F)F)cc2C(=O)N([C@@H](C)CO)C[C@@H]1C,inconclusive: 70.2%
3,COc1ccc(S(=O)(=O)N(C)C[C@H]2OCCCC[C@H](C)Oc3ccc(NC(=O)Nc4c(C)noc4C)cc3C(=O)N([C@H](C)CO)C[C@@H]2C)cc1,active: 67%
4,COc1ccc(Nc2nc3ccc(OC)cc3s2)cc1,inactive: 2.11%
5,C[C@H]1CN([C@@H](C)CO)C(=O)Cc2cc(NC(=O)Cn3cnnn3)ccc2O[C@@H]1CN(C)S(=O)(=O)c1ccc(Cl)cc1,inactive: 6.84%
6,C/C(=N\NC(=O)c1ccc(OC2CCCC2)cc1)c1ccc(O)cc1,inconclusive: 53.1%
7,COc1ccc(-c2cc(=O)oc3cc(OC(C)C(=O)NCCCn4ccnc4)ccc23)cc1 (stereo unspecified),inconclusive: 48.7%
8,CCCC#Cc1ccc([C@@H]2[C@@H](CO)N3CCCCN(Cc4ccncc4)C[C@H]23)cc1,active: 46.6%
9,Cc1cccc(COC[C@H](CC(C)C)N2CCN(C(=O)c3ccc(C(F)(F)F)cc3)CCC2=O)c1,inactive: -4.81%
10,CC1CN(C(=O)c2ccc(OC3CCN(Cc4ccccn4)CC3)cc2)CCN1C (stereo unspecified),inconclusive: 48.2%
11,COc1ccc2oc(=O)cc(CN3CCN(Cc4ccc(OC)c(OC)c4OC)CC3)c2c1,inactive: 5.22%
12,O=C(CNC(=O)c1cccs1)NCC(=O)OCC(=O)c1ccc([N+](=O)[O-])cc1,inconclusive: 23%
13,COCCCNC(=O)C1=CCN(S(=O)(=O)c2ccc(C)cc2)CC1,inconclusive: 31.2%
14,C=C[C@@]1(C)CCC(/C(C)=C/C=C/C(C)(C)O)C[C@@H]1C(=C)C (stereo partly specified),inconclusive: 60.9%
15,C[C@@H]1CN([C@H](C)CO)C(=O)Cc2cc(NC(=O)Cn3cnnn3)ccc2O[C@H]1CN(C)Cc1ccc(Oc2ccccc2)cc1,inactive: 18.9%
16,COC(=O)[C@@H]1[C@@H](CO)[C@@H]2Cn3c(cccc3=O)[C@@H]2N1CC1CCCCC1,inconclusive: 51.9%
17,CC(C)C(=O)Nc1ccc2c(c1)C(=O)N(C)[C@H]1CC[C@@H](CC(=O)NCCc3ccccc3)O[C@@H]1CO2,inactive: 4.45%
18,O=c1ccc2nc3ccccc3sc-2c1,inconclusive: 33.1%
19,Cn1c(SCC(=O)NCC2COc3ccccc3O2)nnc1C(F)(F)F (stereo unspecified),inconclusive: 34.2%
20,CCOc1cc(N2CCOCC2)c(OCC)cc1NC(=O)COc1cccc(Cl)c1,inconclusive: 25.5%
21,Cc1cc(=O)oc2c(C)c(OCC(=O)NCC3CCC(C(=O)O)CC3)ccc12 (stereo unspecified),inconclusive: 22.4%
22,Cc1cc(CNC(=O)[C@H](C)[C@@H]2C[C@@]2(C)[C@@H](NC(=O)OCc2ccccc2)c2ccccc2)nn1C,inconclusive: 27.5%
23,Cc1ccccc1-c1cccc([C@@H]2C[C@H]3[C@H](CON3C)CN2Cc2cc(Cl)cc(Cl)c2)c1,inconclusive: 28.2%

# Single entries from the entries so far:
# CPE inhibition, Cc1cccc(COC[C@H](CC(C)C)N2CCN(C(=O)c3ccc(C(F)(F)F)cc3)CCC2=O)c1 is entered as inactive: -4.81%
# CPE inhibition, C/C(=N\NC(=O)c1ccc(OC2CCCC2)cc1)c1ccc(O)cc1 is entered as inconclusive: 53.1%
# CPE inhibition, CCCC#Cc1ccc([C@@H]2[C@@H](CO)N3CCCCN(Cc4ccncc4)C[C@H]23)cc1 is entered as active: 46.6%
# CPE inhibition, Cc1ccccc1-c1cccc([C@@H]2C[C@H]3[C@H](CON3C)CN2Cc2cc(Cl)cc(Cl)c2)c1 is entered as inconclusive: 28.2%
# CPE inhibition, Cc1cc(CNC(=O)[C@H](C)[C@@H]2C[C@@]2(C)[C@@H](NC(=O)OCc2ccccc2)c2ccccc2)nn1C is entered as inconclusive: 27.5%
